Paper PMC5540925
Results are given in words; binding and its absence hold for the method and conditions named. In cells and extracts the contact can be indirect. Some results given as binding are weak or reduced against the parent protein; the word gives no strength. Where a sequence is shown, tags or fusion partners need not be part of it.

Target: T1, Flag-Kaiso (human) (UniProt Q86T24)
T1 sequence: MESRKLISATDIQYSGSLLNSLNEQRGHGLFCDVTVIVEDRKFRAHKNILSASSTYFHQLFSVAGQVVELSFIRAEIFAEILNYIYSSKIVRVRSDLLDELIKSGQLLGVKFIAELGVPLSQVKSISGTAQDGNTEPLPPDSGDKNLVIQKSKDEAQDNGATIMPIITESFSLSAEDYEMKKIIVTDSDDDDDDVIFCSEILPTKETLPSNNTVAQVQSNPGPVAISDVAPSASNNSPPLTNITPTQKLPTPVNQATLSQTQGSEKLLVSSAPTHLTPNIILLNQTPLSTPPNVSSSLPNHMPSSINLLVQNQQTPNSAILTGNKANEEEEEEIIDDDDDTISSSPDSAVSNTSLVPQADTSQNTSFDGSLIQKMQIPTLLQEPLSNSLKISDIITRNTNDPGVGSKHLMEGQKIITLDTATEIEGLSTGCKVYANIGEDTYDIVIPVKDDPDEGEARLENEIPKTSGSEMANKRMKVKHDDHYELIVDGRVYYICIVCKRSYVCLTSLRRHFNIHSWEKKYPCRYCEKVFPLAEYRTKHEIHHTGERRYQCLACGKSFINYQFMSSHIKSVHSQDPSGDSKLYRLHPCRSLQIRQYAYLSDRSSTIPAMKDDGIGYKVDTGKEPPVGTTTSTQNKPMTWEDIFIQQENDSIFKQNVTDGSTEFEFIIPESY
Experiment: co-IP; HUVECs and HMEC-1s co-transfected with pCMV-flag-Kaiso and pCMV-myc-p120ctn, 48 h; Pierce Co-IP kit, pre-cleared lysate incubated with anti-FLAG or anti-Myc antibody-coupled resin at 4 °C overnight; eluate examined by Western blot

binding: binds
B1: Myc-p120ctn (protein, UniProt O60716-1 1-968)
chain: MDDSEVESTASILASVKEQEAQFEKLTRALEEERRHVSAQLERVRVSPQDANPLMANGTLTRRHQNGRFVGDADLERQKFSDLKLNGPQDHSHLLYSTIPRMQEPGQIVETYTEEDPEGAMSVVSVETSDDGTTRRTETTVKKVVKTVTTRTVQPVAMGPDGLPVDASSVSNNYIQTLGRDFRKNGNGGPGPYVGQAGTATLPRNFHYPPDGYSRHYEDGYPGGSDNYGSLSRVTRIEERYRPSMEGYRAPSRQDVYGPQPQVRVGGSSVDLHRFHPEPYGLEDDQRSMGYDDLDYGMMSDYGTARRTGTPSDPRRRLRSYEDMIGEEVPSDQYYWAPLAQHERGSLASLDSLRKGGPPPPNWRQPELPEVIAMLGFRLDAVKSNAAAYLQHLCYRNDKVKTDVRKLKGIPVLVGLLDHPKKEVHLGACGALKNISFGRDQDNKIAIKNCDGVPALVRLLRKARDMDLTEVITGTLWNLSSHDSIKMEIVDHALHALTDEVIIPHSGWEREPNEDCKPRHIEWESVLTNTAGCLRNVSSERSEARRKLRECDGLVDALIFIVQAEIGQKDSDSKLVENCVCLLRNLSYQVHREIPQAERYQEAAPNVANNTGPHAASCFGAKKGKDEWFSRGKKPIEDPANDTVDFPKRTSPARGYELLFQPEVVRIYISLLKESKTPAILEASAGAIQNLCAGRWTYGRYIRSALRQEKALSAIADLLTNEHERVVKAASGALRNLAVDARNKELIGKHAIPNLVKNLPGGQQNSSWNFSEDTVISILNTINEVIAENLEAAKKLRETQGIEKLVLINKSGNRSEKEVRAAALVLQTIWGYKELRKPLEKEGWKKSDFQVNLNNASRSQSSHSYDDSTLPLIDRNQKSDKKPDREEIQMSNMGSNTKSLDNNYSTPNERGDHNRTLDRSGDLGDMEPLKGTTPLMQDEGQESLEEELDVLVLDDEGGQVSYPSMQKI
